Laboratory results: PubChem BioAssay AID1224826 (NIAID, 2016)
The whole screen tested about 17,000 reagents; shown is a random part of them. About 1,110 of them (6.6%) were called active. 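Active means lowered or raised reporter signal; replicate intensities are raw and not normalised per plate.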 Reagents against one gene are numbered here. Further read-outs or replicates are left out here.

- Purpose: 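Knock-downs that raise or lower Tnf reporter signal after endotoxin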 (primary screen)
- Cells: RAW264.7 G9 macrophages from mouse bearing reporters for p65 (GFP) and the Tnf promoter (mCherry)
- Reagent: siRNA pool against mouse genes, 100 nM
- Time to read-out: 16 h of LPS stimulation, after 2 days of siRNA transfection
- Challenge: bacterial lipopolysaccharide (Salmonella minnesota R595), 10 ng/ml
- Read-out: 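Imaged Tnf reporter mCherry in nuclei, minus background, normalised per plate to the median and expressed as robust z-scores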
- Direction: Tnf reporter robust z-score: higher = stronger Tnf promoter reporter signal after LPS
- Active means: 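a well counts as active at a score of -1.3 or below (Tlr4 knock-down control median) or above 3 (raised signal); controls and wells holding fewer than 50 cells are excluded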
- Meaning of the calls: active = Tnf reporter clearly lowered or raised; inactive = no clear change in Tnf reporter

target	reagent no.	Tnf reporter robust z-score	fewer than 50 cells in well	outcome
C1qbp	1	1.42	enough cells in well	inactive
Nkx2-5	1	0.08	enough cells in well	inactive
Hbegf	1	-0.7	enough cells in well	inactive
Cyp27a1	1	1.82	enough cells in well	inactive
Rab33b	1	0.14	enough cells in well	inactive
Or4c126	1	1.6	enough cells in well	inactive
Slc12a3	1	0.38	enough cells in well	inactive
Usp54	1	-0.52	enough cells in well	inactive
Usp54	2	1.74	enough cells in well	inactive
Cyp2c54	1	1.04	enough cells in well	inactive
Dennd2a	1	1.68	enough cells in well	inactive
Rnf150	1	1.08	enough cells in well	inactive
Amigo3	1	-0.03	enough cells in well	inactive
Ndst2	1	0.15	enough cells in well	inactive

Quoted from the listing (3 entries):
target	reagent no.	Tnf reporter robust z-score	fewer than 50 cells in well	outcome
Rnf150	1	1.08	enough cells in well	inactive
Amigo3	1	-0.03	enough cells in well	inactive
Ndst2	1	0.15	enough cells in well	inactive

The results go on.
target	reagent no.	Tnf reporter robust z-score	fewer than 50 cells in well	outcome
Pudp	1	-0.29	enough cells in well	inactive
Syne3	1		fewer than 50 cells per well; well left out of calls	inactive
Il5	1	-0.48	enough cells in well	inactive
Ppp6r2	1	0.29	enough cells in well	inactive
Fam229b	1	-1.07	enough cells in well	inactive
Commd9	1	1.01	enough cells in well	inactive
Or4d11	1	2.27	enough cells in well	inactive
Aldoart1	1	-0.33	enough cells in well	inactive
Pacc1	1		fewer than 50 cells per well; well left out of calls	inactive
Rassf10	1	-0.23	enough cells in well	inactive
Ercc1	1	0.59	enough cells in well	inactive
Uba52	1	-1.22	enough cells in well	inactive
Kcnj2	1	0.87	enough cells in well	inactive
Rps19	1	-0.21	enough cells in well	inactive
Tubgcp4	1	0.99	enough cells in well	inactive
Pals1	1	1.74	enough cells in well	inactive
Wbp11	1		fewer than 50 cells per well; well left out of calls	inactive
Sts	1	-0.38	enough cells in well	inactive
Galnt3	1	0.77	enough cells in well	inactive
Cnih2	1	0.08	enough cells in well	inactive
Or8b12	1		fewer than 50 cells per well; well left out of calls	inactive
Gabrb2	1	-1.2	enough cells in well	inactive
Gabrb2	2	0.82	enough cells in well	inactive
Adgrf5	1	-1	enough cells in well	inactive
Adam18	1		fewer than 50 cells per well; well left out of calls	inactive
Ccar1	1	-0.65	enough cells in well	inactive
